Consider 7 sequences from publication doi:10.1101/2025.02.06.636770.

The exact form of at least one protein or probe is not confirmed.

The subject of the data set is OsVOZ1-MBP. As to the kind of experiment: EMSA. (In general: A gel shift assay detects complexes by their altered migration in electrophoresis.)
In the case of “AGCCAGTGGCGATAAGAAATGTGGGGCCCACATGGCCTTATCGCCACTGGCT (double strand) [JAZ9-EMSA]”, the binding result is “binds”. In the case of “AGCCAGTGGCGATAAGCATAGTATCCCACAACCAAACTTATCGCCACTGGCT (double strand) [JAZ12-EMSA]”, the binding result is “binds”. Turning to “AGCCAGTGGCGATAAGCCATGTGGGCCCCACATTTCCTTATCGCCACTGGCT (double strand) [JAZ11-EMSA]”, the binding result is reported as “binds”. As for “AGCCAGTGGCGATAAGCCCACCCCACCCCACCTTATCGCCACTGGCT (double strand) [CCCAC-EMSA]”, the entry is “binds”; as for “AGCCAGTGGCGATAAGCGTACTCCCACCCACCCCGGCTTATCGCCACTGGCT (double strand) [JAZ14-EMSA]”, “binds”; as for “AGCCAGTGGCGATAAGGCCCACAATCTCACGTGGGTCTTATCGCCACTGGCT (double strand) [JAZ15-EMSA]”, “binds”. As for “AGCCAGTGGCGATAAGTAAACTGAGTGGGCAAACAACTTATCGCCACTGGCT (double strand) [JAZ5-EMSA]”, the entry is “binds”.
